Assay results: US7901867B2, “Sulphonium salt initiators” (BASF SE, priority 2005, dated 2011)

Test: Yellowing of the cured coating, b* (CIE lab) value

## COC(=O)c1ccccc1[S+](c1ccc(OC)cc1)c1ccc(C(C)C)cc1 (centres unmarked) [Example 2, (4-isopropyl-phenyl)-(2-methoxycarbonyl-phenyl)-(4-methoxyphenyl) sulfonium hexafluorophosphate]
1% compound in epoxy/oxetane formulation of example 28 on white chipboard, 1×120 W/cm medium pressure mercury lamp, belt 20 m/min
  initial b* value (CIE lab) after the irradiation: 3.8
As initial value, then 16 h additional exposure to fluorescent tube (TLK40/05)
  b* value (CIE lab) after 16 h of additional exposure: 4.4
